The target in the assay is T1, Myc-PHLPP2 (human) (UniProt Q6ZVD8).
T1 sequence: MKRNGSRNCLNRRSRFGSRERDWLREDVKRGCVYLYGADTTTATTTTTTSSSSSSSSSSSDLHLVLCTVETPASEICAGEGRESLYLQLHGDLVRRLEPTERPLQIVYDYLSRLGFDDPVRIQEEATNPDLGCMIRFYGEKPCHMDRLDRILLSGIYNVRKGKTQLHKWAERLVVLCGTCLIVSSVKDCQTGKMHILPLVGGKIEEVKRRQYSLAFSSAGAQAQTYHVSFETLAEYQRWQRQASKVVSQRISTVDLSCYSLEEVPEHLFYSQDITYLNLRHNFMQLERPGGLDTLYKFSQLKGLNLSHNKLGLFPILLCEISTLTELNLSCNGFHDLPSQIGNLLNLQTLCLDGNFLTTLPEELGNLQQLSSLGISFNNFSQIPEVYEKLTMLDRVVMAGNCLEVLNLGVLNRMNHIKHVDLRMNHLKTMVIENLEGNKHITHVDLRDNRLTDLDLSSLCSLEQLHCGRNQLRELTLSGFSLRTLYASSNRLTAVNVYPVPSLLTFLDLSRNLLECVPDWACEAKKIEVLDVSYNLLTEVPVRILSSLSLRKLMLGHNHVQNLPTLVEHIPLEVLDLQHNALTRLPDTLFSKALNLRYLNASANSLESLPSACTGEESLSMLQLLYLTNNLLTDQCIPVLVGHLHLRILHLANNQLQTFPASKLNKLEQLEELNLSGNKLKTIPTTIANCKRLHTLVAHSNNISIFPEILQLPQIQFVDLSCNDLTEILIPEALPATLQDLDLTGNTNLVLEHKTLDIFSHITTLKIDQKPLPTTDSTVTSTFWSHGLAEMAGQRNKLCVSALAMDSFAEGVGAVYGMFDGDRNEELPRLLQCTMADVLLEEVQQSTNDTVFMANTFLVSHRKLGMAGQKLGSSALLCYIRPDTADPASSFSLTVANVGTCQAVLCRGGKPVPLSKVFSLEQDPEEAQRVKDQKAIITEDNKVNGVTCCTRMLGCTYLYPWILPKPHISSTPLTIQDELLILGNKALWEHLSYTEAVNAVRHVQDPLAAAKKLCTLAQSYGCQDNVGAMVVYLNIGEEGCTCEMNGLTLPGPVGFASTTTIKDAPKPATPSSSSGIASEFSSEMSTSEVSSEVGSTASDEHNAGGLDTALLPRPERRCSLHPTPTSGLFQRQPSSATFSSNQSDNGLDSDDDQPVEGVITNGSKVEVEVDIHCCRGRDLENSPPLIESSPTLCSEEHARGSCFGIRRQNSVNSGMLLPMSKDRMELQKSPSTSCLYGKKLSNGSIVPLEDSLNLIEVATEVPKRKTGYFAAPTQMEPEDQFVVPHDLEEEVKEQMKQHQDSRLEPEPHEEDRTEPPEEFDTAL
The assay can be described thus: co-IP; overexpressed proteins co-expressed in 293T cells, immunoprecipitation and immunoblot; in Fig. 4B increasing amounts of PHLPP2 or PHLPP2-PI. In general terms: A western blot detects proteins with antibodies after separation by electrophoresis.

Amino acid sequences for entries named in this document (tags omitted). A change or cut given only in a name is not applied to a line headed by its entry.
UniProt O14920: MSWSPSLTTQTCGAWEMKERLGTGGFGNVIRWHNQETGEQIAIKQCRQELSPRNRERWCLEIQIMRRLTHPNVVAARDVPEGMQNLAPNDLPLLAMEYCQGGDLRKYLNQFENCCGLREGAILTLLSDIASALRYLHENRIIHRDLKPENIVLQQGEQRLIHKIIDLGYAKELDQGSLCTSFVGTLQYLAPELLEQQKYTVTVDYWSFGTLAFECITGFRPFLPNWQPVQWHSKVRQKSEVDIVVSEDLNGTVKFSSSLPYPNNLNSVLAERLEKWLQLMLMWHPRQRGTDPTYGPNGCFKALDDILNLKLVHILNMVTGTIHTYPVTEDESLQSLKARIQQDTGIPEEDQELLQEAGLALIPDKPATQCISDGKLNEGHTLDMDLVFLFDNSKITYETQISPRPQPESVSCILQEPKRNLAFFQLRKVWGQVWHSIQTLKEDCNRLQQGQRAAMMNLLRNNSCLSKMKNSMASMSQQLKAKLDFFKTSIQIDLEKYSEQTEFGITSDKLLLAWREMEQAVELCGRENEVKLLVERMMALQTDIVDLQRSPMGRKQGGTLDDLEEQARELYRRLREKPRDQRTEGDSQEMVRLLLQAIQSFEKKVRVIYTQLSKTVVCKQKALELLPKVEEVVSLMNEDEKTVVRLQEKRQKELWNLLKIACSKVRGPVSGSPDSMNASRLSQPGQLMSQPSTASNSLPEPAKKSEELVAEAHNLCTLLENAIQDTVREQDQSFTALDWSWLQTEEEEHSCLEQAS

No constants are given. Whether binding was seen depends on the method and setting. Binding seen in cells or lysates may run through a third protein. Binding calls can cover weak binding; strength is not graded here. Where a sequence is shown, tags or fusion partners need not be part of it.

For the substance “FLAG-tagged IKKβ kinase-dead (KD) (from UniProt O14920)”, the binding entry is given as “binds”.

Values taken from paper PMC3996652.
